Taken from: PubChem BioAssay AID1053209 (Peter MacCallum Cancer Centre, 2014)

- Purpose: 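Gene losses that combine with doxorubicin to kill mouse bone cancer cells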 (follow-up of hits)
- System: mouse primary osteosarcoma cells
- Reagents: single siRNA against mouse genes, 25 nM (text also states 40 nM)
- Duration: about 120 h (48 h before drug, then 72 h with drug)
- Treatment: doxorubicin 100 nM (about IC30-40), added 48 h after transfection, for 72 h
- Read-out: 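ATP-based luminescent viability, with or without doxorubicin, relative to non-targeting control NT1, mean of two replicates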
- Scale: viability with doxorubicin, vs NT1: higher = more viable cells under doxorubicin; viability without drug, vs NT1: higher = more viable cells without drug
- Call rule: 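Counted as active (class LC dox) if viability falls to 0.7 of NT1 or below under doxorubicin but stays within 0.7 to 1.1 without drug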
Here is one part, drawn at random, of about 1,580 deposited reagents. 207 of them (13%) count as active. 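Rows are single siRNAs; four siRNAs per gene were tested, a gene counting as confirmed only when at least two agree.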 Entries without a mark were called inactive. Reagents against one gene are numbered here. Further read-outs or replicates are left out here.

Prr18 #1
- combined effect class: normal viability with and without drug
- viability with doxorubicin, vs NT1: 0.9
- viability without drug, vs NT1: 1.02

Prr18 #2
- combined effect class: low viability only with doxorubicin; normal without drug (active)
- viability with doxorubicin, vs NT1: 0.7
- viability without drug, vs NT1: 0.95

Prr18 #3
- combined effect class: normal viability with and without drug
- viability with doxorubicin, vs NT1: 0.94
- viability without drug, vs NT1: 1.01

Prr18 #4
- combined effect class: normal viability with and without drug
- viability with doxorubicin, vs NT1: 1.02
- viability without drug, vs NT1: 0.98

Rps17 #1
- combined effect class: low viability with and without drug
- viability with doxorubicin, vs NT1: 0.19
- viability without drug, vs NT1: 0.25

Rps17 #2
- combined effect class: low viability with and without drug
- viability with doxorubicin, vs NT1: 0.31
- viability without drug, vs NT1: 0.48

Rps17 #3
- combined effect class: low viability with and without drug
- viability with doxorubicin, vs NT1: 0.24
- viability without drug, vs NT1: 0.27

Rps17 #4
- combined effect class: low viability with and without drug
- viability with doxorubicin, vs NT1: 0.42
- viability without drug, vs NT1: 0.57

Aqr #1
- combined effect class: low viability with and without drug
- viability with doxorubicin, vs NT1: 0.22
- viability without drug, vs NT1: 0.38

Aqr #2
- combined effect class: low viability with and without drug
- viability with doxorubicin, vs NT1: 0.18
- viability without drug, vs NT1: 0.46

Aqr #3
- combined effect class: low viability with and without drug
- viability with doxorubicin, vs NT1: 0.18
- viability without drug, vs NT1: 0.42

Aqr #4
- combined effect class: low viability with and without drug
- viability with doxorubicin, vs NT1: 0.21
- viability without drug, vs NT1: 0.43

Targets above whose target name begins with A or a (4):
Aqr #1
- combined effect class: low viability with and without drug
- viability with doxorubicin, vs NT1: 0.22
- viability without drug, vs NT1: 0.38

Aqr #2
- combined effect class: low viability with and without drug
- viability with doxorubicin, vs NT1: 0.18
- viability without drug, vs NT1: 0.46

Aqr #3
- combined effect class: low viability with and without drug
- viability with doxorubicin, vs NT1: 0.18
- viability without drug, vs NT1: 0.42

Aqr #4
- combined effect class: low viability with and without drug
- viability with doxorubicin, vs NT1: 0.21
- viability without drug, vs NT1: 0.43
